# Assay results published in patent publication US5811395 (dated 1998).
# HELM strings list residues between dots; [ac] is acetyl, [am] amide, other brackets name non-standard units.
# Test: general procedure: peptide synthesis; [4-(oxymethylphenylacetamidomethyl] resin loaded with Boc-alanine (B chain); p-benzyloxybenzyl resin (A chain)
# Settings: conjugation step
substance,measurement,value
"PEPTIDE1{Q.L.Y.S.A.L.A.N.K.C.C.H.V.G.C.T.K.R.S.L.A.R.F.C}|PEPTIDE2{D.S.W.M.E.E.V.I.K.L.C.G.R.E.L.V.R.A.Q.I.A.I.C.G.M.S.T.W.S}$PEPTIDE1,PEPTIDE1,10:R3-15:R3|PEPTIDE1,PEPTIDE2,11:R3-11:R3|PEPTIDE1,PEPTIDE2,24:R3-23:R3$$$V2.0",conjugation yield,78.3%
